Measurements: the supplement of paper PMC10849652
Some of the results follow.

Sequences of proteins named here, by UniProt entry; tags and fusion partners are left off. A change or cut given only in a name is not applied to a line headed by its entry.
UniProt Q53EU6: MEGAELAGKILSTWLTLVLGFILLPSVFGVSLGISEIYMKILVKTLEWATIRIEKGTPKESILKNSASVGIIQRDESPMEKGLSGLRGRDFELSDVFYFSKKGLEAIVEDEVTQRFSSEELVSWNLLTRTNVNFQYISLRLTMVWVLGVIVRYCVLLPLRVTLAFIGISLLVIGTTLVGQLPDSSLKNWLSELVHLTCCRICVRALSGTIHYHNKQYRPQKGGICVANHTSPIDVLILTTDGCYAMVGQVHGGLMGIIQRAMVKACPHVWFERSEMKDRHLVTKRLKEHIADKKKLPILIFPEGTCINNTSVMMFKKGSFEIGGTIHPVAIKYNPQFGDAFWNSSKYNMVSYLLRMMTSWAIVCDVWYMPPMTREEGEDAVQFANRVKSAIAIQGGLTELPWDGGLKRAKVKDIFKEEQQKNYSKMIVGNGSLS
UniProt Q49A26: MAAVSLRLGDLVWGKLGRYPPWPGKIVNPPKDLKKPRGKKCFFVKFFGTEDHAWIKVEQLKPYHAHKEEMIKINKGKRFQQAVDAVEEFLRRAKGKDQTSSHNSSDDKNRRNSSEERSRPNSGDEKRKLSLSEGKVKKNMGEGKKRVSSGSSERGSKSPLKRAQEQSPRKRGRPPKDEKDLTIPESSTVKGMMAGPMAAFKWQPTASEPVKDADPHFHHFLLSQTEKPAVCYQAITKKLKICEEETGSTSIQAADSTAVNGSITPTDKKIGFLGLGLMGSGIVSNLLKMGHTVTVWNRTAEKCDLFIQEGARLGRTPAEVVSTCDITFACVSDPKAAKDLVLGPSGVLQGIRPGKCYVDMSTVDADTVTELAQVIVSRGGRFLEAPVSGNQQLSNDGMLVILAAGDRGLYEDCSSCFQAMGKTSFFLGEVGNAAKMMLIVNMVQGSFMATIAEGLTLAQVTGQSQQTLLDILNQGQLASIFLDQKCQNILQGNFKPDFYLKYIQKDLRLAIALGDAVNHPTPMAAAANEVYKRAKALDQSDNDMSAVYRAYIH
UniProt Q8N954: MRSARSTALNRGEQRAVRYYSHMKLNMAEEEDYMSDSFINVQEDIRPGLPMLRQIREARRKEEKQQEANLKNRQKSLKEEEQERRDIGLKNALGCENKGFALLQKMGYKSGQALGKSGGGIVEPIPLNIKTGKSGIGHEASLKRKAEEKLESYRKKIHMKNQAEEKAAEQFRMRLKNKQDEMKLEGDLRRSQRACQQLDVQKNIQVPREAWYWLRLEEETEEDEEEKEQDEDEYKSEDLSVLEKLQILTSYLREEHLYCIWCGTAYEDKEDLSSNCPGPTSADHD
UniProt Q92917: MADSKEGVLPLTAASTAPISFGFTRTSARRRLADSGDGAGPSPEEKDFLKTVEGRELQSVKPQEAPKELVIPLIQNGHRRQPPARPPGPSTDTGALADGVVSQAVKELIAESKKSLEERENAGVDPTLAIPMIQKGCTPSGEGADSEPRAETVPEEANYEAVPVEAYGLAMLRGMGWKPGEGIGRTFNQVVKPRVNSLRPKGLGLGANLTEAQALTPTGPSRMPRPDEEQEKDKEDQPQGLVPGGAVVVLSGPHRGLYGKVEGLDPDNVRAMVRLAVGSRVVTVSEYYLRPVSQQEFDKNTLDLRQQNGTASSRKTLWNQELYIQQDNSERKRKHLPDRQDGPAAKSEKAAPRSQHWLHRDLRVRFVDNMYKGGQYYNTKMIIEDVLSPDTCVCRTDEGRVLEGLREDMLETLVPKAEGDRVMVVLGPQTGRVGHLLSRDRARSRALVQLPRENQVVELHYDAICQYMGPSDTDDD
UniProt P62879, whole entry, looked up: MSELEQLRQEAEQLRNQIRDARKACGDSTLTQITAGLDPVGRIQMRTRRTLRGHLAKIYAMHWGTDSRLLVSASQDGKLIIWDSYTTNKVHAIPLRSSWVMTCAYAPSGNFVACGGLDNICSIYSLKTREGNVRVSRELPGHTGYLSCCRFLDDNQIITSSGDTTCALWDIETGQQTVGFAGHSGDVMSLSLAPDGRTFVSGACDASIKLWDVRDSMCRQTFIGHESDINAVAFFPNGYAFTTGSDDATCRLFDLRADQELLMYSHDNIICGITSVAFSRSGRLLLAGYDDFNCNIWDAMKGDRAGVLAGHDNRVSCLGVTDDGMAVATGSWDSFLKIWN
UniProt Q9Y5P6: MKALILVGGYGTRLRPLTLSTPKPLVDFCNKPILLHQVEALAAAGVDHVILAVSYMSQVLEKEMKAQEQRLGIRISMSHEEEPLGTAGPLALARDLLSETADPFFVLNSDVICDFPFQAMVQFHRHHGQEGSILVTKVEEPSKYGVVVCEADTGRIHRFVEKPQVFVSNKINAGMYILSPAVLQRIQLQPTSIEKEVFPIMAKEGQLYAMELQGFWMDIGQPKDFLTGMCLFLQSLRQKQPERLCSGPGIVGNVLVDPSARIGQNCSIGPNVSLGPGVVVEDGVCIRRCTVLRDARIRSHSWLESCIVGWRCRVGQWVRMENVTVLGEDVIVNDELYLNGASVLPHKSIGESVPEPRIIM
UniProt P36915, whole entry, looked up: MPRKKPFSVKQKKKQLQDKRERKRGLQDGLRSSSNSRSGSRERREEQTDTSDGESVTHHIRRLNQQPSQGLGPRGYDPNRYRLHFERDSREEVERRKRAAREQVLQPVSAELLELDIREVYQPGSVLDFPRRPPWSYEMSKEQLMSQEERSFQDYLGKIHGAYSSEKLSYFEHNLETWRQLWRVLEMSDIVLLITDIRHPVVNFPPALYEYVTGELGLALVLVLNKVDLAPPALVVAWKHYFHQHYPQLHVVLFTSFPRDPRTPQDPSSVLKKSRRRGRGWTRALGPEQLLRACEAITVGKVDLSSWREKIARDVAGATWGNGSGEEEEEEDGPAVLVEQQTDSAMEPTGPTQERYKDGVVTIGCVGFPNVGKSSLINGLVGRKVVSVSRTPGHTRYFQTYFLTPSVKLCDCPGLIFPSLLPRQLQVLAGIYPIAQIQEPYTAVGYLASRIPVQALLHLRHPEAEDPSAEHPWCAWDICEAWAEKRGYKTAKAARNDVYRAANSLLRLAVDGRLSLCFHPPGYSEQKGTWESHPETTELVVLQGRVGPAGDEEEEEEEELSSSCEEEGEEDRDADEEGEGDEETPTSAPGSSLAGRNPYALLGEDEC
UniProt O14908: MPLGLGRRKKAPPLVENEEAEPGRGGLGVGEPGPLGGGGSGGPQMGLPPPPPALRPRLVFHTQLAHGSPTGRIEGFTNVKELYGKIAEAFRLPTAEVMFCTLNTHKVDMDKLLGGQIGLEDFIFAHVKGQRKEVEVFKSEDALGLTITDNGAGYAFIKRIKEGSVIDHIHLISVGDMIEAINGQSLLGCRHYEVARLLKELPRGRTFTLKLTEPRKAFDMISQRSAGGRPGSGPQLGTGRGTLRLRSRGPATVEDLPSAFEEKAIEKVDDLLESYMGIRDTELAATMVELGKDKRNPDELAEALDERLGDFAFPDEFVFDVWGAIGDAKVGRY
UniProt P17900: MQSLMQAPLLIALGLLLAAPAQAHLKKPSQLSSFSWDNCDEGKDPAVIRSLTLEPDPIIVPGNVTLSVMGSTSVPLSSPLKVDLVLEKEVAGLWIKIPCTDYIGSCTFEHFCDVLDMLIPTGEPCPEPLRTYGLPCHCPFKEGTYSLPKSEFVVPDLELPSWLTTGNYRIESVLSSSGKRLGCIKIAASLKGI
UniProt Q9BRX5: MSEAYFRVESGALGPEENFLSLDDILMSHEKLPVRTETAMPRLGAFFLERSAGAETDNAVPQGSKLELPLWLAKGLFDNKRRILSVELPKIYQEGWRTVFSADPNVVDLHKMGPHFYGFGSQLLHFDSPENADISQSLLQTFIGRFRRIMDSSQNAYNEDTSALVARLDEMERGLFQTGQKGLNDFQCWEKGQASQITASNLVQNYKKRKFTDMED
UniProt B7ZAQ6: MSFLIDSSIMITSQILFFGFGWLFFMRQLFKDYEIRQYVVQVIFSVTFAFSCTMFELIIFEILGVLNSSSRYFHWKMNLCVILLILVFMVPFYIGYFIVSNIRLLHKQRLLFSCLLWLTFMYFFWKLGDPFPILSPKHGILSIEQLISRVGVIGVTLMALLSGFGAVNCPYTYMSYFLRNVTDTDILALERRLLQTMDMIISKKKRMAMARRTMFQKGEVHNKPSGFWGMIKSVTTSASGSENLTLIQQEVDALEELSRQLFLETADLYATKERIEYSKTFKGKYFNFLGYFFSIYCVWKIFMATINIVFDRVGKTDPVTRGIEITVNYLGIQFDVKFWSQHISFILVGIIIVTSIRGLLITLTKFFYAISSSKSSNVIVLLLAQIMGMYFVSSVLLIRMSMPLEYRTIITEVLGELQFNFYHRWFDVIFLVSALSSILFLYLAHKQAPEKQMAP
UniProt Q9Y248: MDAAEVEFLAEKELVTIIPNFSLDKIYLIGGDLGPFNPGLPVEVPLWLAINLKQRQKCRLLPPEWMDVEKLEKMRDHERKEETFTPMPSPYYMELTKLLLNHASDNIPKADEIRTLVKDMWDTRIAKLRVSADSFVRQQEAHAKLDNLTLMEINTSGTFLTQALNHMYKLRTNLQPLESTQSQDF
UniProt Q96EK6: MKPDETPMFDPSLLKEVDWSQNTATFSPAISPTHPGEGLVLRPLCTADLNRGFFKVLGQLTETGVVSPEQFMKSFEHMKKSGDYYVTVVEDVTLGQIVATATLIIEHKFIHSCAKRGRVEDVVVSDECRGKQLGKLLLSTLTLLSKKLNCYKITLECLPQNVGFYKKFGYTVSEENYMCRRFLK
UniProt Q9HC38: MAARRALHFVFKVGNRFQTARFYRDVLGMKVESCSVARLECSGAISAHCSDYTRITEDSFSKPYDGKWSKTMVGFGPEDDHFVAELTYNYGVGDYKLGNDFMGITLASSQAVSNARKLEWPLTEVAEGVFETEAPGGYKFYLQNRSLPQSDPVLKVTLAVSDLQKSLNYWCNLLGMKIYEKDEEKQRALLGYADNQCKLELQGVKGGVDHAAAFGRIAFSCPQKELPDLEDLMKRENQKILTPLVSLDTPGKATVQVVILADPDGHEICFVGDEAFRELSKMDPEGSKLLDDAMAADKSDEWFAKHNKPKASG
UniProt Q9UBQ7: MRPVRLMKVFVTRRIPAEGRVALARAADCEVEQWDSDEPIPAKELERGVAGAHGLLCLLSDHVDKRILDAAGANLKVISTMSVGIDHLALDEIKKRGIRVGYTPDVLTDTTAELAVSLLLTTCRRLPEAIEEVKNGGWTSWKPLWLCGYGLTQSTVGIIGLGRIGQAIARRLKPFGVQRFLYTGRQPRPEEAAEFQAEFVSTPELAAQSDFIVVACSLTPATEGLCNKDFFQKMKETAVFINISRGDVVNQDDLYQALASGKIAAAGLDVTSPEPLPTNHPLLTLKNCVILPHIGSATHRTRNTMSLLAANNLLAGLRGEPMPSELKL
UniProt Q9NS18: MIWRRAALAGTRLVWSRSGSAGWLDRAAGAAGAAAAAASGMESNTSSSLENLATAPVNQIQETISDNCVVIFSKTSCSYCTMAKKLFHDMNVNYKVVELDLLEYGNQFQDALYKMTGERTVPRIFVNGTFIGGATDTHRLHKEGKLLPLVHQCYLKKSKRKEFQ
UniProt Q9P2T1: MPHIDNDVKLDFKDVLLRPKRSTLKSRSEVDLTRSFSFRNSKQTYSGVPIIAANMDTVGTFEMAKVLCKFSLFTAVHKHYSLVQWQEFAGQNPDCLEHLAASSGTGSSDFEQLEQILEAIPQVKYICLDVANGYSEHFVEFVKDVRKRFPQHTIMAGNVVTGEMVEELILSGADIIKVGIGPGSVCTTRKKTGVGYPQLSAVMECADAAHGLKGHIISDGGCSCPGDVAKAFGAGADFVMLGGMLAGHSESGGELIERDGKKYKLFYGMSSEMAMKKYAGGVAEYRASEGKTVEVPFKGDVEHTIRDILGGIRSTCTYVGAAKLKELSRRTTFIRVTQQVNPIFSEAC
UniProt Q12849: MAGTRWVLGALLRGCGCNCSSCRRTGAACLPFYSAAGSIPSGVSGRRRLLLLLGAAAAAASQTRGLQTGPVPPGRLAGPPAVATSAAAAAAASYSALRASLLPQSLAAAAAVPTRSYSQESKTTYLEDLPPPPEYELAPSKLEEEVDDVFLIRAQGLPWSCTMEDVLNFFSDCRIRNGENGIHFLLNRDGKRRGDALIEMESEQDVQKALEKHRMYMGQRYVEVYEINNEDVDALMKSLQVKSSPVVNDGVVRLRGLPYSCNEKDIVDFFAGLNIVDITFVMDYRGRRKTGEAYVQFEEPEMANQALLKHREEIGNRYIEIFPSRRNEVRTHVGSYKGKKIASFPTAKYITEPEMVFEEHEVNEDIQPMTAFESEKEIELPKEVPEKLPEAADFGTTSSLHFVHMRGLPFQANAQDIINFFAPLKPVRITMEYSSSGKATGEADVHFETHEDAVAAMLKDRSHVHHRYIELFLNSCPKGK
UniProt P62993, whole entry, looked up: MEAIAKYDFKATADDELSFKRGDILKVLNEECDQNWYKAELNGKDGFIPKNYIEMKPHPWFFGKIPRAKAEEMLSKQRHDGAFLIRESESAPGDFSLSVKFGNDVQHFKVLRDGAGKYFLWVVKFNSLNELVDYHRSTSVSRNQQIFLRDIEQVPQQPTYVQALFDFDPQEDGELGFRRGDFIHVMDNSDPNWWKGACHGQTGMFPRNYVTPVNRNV

Compound: CCCc1cc(C)[nH]c(=O)c1CNC(=O)c1cc(-c2ccnc(N3CCN(C)CC3)c2)cc2c1cnn2C(C)C
Test: log2 fold change, soluble protein after heating vs DMSO (PISA); higher = thermal stabilisation; K562 cells, 10 uM, 30 min; active = over 0.2 and 3.5 SD of the protein, either way, in both replicates (recomputed)
How it was run: (§1)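 Soluble protein was defined as the supernatant after 21,000xg for 90 min. It came from K562 cells at 2×10^6 cells/mL given 10 μM compound for 30 min, heated in aliquots for 3 min across 48°C-58°C, pooled, and extracted in PBS with 0.5% NP-40 at 4°C, and was quantified by TMTpro 16plex LC-MS/MS with equalised channel sums. Thermal stability against control samples, from duplicates, is reported as log2 fold change.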

log2 fold change, inactive:
GPAT3 (UniProt Q53EU6) -0.023
GK (UniProt P32189) -0.012
GLYR1 (UniProt Q49A26) 0.085
GPATCH11 (UniProt Q8N954) -0.031
GPKOW (UniProt Q92917) -0.058
GNB1 (UniProt P62873) -0.008
GINS1 (UniProt Q14691) 0.005
GNB2 (UniProt P62879) 0.012
GNAI2 isoform 4 (UniProt P04899) 0.029
GPALPP1 (UniProt Q8IXQ4) -0.064
GMPPB isoform 2 (UniProt Q9Y5P6) -0.056
GNB4 (UniProt Q9HAV0) -0.017
GPHN isoform 2 (UniProt Q9NQX3) -0.003
GNL1 (UniProt P36915) 0.002
GSK3A (UniProt P49840) -0.039
GPAT4 (UniProt Q86UL3) 0.019
GIPC1 (UniProt O14908) -0.04
GNB1L (UniProt Q9BYB4) -0.107
GMNN (UniProt O75496) -0.006
GMDS (UniProt O60547) -0.046
GPS1 isoform 7 (UniProt Q13098) -0.016
GINS4 (UniProt Q9BRT9) -0.007
GM2A (UniProt P17900) -0.013
GLRX5 (UniProt Q86SX6) -0.056
GINS3 (UniProt Q9BRX5) -0.006
GNPDA1 (UniProt P46926) -0.014
GMEB2 (UniProt Q9UKD1) -0.088
GPN1 isoform 5 (UniProt Q9HCN4) -0.043
GPR89A (UniProt B7ZAQ6) 0.01
GINS2 (UniProt Q9Y248) 0.021
GOLGA5 (UniProt Q8TBA6) 0.024
GNE isoform 2 (UniProt Q9Y223) -0.06
GNPNAT1 (UniProt Q96EK6) -0.048
GLOD4 isoform 2 (UniProt Q9HC38) 0.008
GRHPR (UniProt Q9UBQ7) 0.012
GPN3 isoform 2 (UniProt Q9UHW5) 0.014
GLRX2 isoform 2 (UniProt Q9NS18) 0.17
GMPR2 isoform 2 (UniProt Q9P2T1) -0.034
GRSF1 (UniProt Q12849) 0.046
GRB2 (UniProt P62993) -0.014

Compound: CCN(CC)Cc1ccc2cc(COC(=O)Nc3ccc(C(=O)NO)cc3)ccc2c1 [givinostat]
Test: as above
How it was run: as §1

log2 fold change, inactive:
GPAT3 (UniProt Q53EU6) 0.039
GK (UniProt P32189) -0.021
GLYR1 (UniProt Q49A26) 0.091
GPATCH11 (UniProt Q8N954) -0.111
GPKOW (UniProt Q92917) 0.084
GNB1 (UniProt P62873) -0.031
GINS1 (UniProt Q14691) 0.001
GNB2 (UniProt P62879) -0.019
GNAI2 isoform 4 (UniProt P04899) -0.161
GPALPP1 (UniProt Q8IXQ4) 0.018
GMPPB isoform 2 (UniProt Q9Y5P6) 0.014
GNB4 (UniProt Q9HAV0) -0.129
GPHN isoform 2 (UniProt Q9NQX3) -0.003
GNL1 (UniProt P36915) -0.033
GSK3A (UniProt P49840) -0.053
GPAT4 (UniProt Q86UL3) -0.024
GIPC1 (UniProt O14908) 0.089
GNB1L (UniProt Q9BYB4) -0.184
GMNN (UniProt O75496) -0.044
GMDS (UniProt O60547) -0.033
GPS1 isoform 7 (UniProt Q13098) -0.011
GINS4 (UniProt Q9BRT9) 0.003
GM2A (UniProt P17900) 0
GLRX5 (UniProt Q86SX6) -0.039
GINS3 (UniProt Q9BRX5) 0.012
GNPDA1 (UniProt P46926) -0.022
GMEB2 (UniProt Q9UKD1) 0.087
GPN1 isoform 5 (UniProt Q9HCN4) 0.004
GPR89A (UniProt B7ZAQ6) 0
GINS2 (UniProt Q9Y248) -0.038
GOLGA5 (UniProt Q8TBA6) -0.031
GNE isoform 2 (UniProt Q9Y223) -0.003
GNPNAT1 (UniProt Q96EK6) 0
GLOD4 isoform 2 (UniProt Q9HC38) -0.002
GRHPR (UniProt Q9UBQ7) 0.012
GPN3 isoform 2 (UniProt Q9UHW5) -0.019
GLRX2 isoform 2 (UniProt Q9NS18) -0.055
GMPR2 isoform 2 (UniProt Q9P2T1) -0.041
GRSF1 (UniProt Q12849) 0.028
GRB2 (UniProt P62993) -0.037
